Where a name gives a salt, the structure may show the parent alone. ± gives the standard deviation of the averaged measurements. The list shows a part of the results. Values are raw readings; no control value is given beside them.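 The yeast community starts from one strain carrying four plasmids, each with an amino-acid or uracil synthesis gene and a fluorescent protein. Random plasmid loss creates mixed prototroph and auxotroph subpopulations. Cells were fixed and counted by automated confocal fluorescence imaging, and DMSO-treated wells served as the vehicle reference.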

The assay deals with Saccharomyces cerevisiae BY4741 SeMeCo community. Briefly: imaged cell count per well (cells); higher = more cells. Conditions: 10 µM; 24 h; SM minimal medium. As to the method:
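Same SeMeCo high-content imaging drug screen: Selleck FDA-approved drugs at 10 µM, 24 h in SM medium, 384-well plates, 3 replicates.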
Consider `COc1ccc([C@H]2CNC(=O)C2)cc1OC1CCCC1` [S- (+)-Rolipram], for which the “imaged cell count per well” value turned out to be 24200 ± 7800.
As for `CCCCOc1ccc(C(=O)CCN2CCCCC2)cc1` [Dyclonine HCl], the figure is 29300 ± 5100.
As to `CCCc1cc(C(N)=S)ccn1` [Protionamide], the “imaged cell count per well” value stood at 25600 ± 5000.
As for `O=c1ccc2cc(O)c(O)cc2o1` [Esculetin], the figure is 20800 ± 9700.
As for `N#Cc1ccc2[nH]cc(CCCCN3CCN(c4ccc5oc(C(N)=O)cc5c4)CC3)c2c1` [Vilazodone], the figure is 25300 ± 3600; as for `Oc1ccc([C@H]2COc3cc(O)ccc3C2)cc1` [Equol], 24200 ± 3000.
As for `CN1CCOC(c2ccccc2)c2ccccc2C1` (stereo not given) [Nefopam HCl], the figure is 21700 ± 7300; as for `C=C1CC[C@@H]2[C@](C)(CO)[C@H](O)CC[C@@]2(C)[C@H]1C/C=C1\C=COC1=O` [Dehydroandrographolide], 25100 ± 1200; as for `Cc1cc(NS(=O)(=O)c2ccc(N)cc2)nc(C)n1` [sulfaisodimidine], 27500 ± 6300.
In the case of `COc1ccc2cc([C@H](C)C(=O)O)ccc2c1` [Naproxen Sodium], the “imaged cell count per well” value was found to be 18700 ± 2900.
Consider `O=C(CCCN1CCN(c2ccccn2)CC1)c1ccc(F)cc1` [Azaperone], for which the “imaged cell count per well” value is 27800 ± 1900.
As for `CO/N=C(\C(=O)N[C@@H]1C(=O)N2C(C(=O)OC(C)OC(C)=O)=C(COC(N)=O)CS[C@H]12)c1ccco1` (stereo not given in full) [Cefuroxime axetil], the figure is 20800 ± 3900; as for `COc1ccc(C(C)=O)c(O)c1` [Paeonol], 21600 ± 3600; as for `NC(=O)N1c2ccccc2CC(=O)c2ccccc21` [Oxcarbazepine], 23700 ± 9400.
As for `CC[C@@H]1/C=C(\C)C[C@H](C)C[C@H](OC)[C@H]2O[C@@](O)(C(=O)C(=O)N3CCCC[C@H]3C(=O)O[C@H](/C(C)=C/[C@@H]3CC[C@H](Cl)[C@H](OC)C3)[C@H](C)[C@@H](O)CC1=O)[C@H](C)C[C@@H]2OC` [Pimecrolimus], the figure is 31200 ± 4000.

These data come from the supplement of paper PMC8975748.
